Laboratory results taken from article PMC4109838.

Protein sequences, listed by entry. Tags and fused reporters are not part of them.
UniProt P63208: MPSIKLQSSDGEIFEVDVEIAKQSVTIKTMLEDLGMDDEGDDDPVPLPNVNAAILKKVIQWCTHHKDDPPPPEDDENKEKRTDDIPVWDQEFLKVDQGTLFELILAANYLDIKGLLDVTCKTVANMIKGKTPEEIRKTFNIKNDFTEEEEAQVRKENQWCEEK
UniProt Q9BZL4: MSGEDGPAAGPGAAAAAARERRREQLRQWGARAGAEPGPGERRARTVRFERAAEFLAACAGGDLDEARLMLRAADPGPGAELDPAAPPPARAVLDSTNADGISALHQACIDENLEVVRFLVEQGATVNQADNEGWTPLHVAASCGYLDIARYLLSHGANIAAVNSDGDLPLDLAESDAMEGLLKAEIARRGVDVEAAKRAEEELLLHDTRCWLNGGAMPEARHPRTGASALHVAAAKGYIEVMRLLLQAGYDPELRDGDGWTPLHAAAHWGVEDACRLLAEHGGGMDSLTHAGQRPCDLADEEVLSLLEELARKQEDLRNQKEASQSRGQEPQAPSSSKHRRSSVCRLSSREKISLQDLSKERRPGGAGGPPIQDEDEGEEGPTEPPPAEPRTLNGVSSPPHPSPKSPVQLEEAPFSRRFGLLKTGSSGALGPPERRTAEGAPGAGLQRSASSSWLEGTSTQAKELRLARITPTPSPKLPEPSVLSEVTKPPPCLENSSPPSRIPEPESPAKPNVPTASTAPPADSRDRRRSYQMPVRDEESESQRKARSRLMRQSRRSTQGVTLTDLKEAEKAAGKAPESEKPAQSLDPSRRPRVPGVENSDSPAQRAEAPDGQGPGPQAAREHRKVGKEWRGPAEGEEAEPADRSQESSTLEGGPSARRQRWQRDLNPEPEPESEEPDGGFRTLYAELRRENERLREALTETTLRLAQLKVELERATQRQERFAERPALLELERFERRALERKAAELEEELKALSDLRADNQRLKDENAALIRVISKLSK
UniProt Q9UKB1: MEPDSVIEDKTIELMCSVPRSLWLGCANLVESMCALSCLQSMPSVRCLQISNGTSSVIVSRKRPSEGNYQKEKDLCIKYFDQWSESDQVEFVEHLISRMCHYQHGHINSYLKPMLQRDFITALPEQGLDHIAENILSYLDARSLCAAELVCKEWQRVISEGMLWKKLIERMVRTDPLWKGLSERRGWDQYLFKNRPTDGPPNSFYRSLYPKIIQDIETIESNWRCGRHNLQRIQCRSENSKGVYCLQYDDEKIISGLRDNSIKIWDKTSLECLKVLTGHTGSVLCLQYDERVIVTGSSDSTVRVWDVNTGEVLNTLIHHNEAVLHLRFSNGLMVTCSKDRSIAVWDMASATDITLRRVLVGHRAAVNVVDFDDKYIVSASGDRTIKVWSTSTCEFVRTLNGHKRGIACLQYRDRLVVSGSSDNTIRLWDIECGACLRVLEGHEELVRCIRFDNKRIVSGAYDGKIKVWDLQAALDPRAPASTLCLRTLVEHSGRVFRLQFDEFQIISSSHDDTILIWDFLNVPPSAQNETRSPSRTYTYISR
UniProt Q93008: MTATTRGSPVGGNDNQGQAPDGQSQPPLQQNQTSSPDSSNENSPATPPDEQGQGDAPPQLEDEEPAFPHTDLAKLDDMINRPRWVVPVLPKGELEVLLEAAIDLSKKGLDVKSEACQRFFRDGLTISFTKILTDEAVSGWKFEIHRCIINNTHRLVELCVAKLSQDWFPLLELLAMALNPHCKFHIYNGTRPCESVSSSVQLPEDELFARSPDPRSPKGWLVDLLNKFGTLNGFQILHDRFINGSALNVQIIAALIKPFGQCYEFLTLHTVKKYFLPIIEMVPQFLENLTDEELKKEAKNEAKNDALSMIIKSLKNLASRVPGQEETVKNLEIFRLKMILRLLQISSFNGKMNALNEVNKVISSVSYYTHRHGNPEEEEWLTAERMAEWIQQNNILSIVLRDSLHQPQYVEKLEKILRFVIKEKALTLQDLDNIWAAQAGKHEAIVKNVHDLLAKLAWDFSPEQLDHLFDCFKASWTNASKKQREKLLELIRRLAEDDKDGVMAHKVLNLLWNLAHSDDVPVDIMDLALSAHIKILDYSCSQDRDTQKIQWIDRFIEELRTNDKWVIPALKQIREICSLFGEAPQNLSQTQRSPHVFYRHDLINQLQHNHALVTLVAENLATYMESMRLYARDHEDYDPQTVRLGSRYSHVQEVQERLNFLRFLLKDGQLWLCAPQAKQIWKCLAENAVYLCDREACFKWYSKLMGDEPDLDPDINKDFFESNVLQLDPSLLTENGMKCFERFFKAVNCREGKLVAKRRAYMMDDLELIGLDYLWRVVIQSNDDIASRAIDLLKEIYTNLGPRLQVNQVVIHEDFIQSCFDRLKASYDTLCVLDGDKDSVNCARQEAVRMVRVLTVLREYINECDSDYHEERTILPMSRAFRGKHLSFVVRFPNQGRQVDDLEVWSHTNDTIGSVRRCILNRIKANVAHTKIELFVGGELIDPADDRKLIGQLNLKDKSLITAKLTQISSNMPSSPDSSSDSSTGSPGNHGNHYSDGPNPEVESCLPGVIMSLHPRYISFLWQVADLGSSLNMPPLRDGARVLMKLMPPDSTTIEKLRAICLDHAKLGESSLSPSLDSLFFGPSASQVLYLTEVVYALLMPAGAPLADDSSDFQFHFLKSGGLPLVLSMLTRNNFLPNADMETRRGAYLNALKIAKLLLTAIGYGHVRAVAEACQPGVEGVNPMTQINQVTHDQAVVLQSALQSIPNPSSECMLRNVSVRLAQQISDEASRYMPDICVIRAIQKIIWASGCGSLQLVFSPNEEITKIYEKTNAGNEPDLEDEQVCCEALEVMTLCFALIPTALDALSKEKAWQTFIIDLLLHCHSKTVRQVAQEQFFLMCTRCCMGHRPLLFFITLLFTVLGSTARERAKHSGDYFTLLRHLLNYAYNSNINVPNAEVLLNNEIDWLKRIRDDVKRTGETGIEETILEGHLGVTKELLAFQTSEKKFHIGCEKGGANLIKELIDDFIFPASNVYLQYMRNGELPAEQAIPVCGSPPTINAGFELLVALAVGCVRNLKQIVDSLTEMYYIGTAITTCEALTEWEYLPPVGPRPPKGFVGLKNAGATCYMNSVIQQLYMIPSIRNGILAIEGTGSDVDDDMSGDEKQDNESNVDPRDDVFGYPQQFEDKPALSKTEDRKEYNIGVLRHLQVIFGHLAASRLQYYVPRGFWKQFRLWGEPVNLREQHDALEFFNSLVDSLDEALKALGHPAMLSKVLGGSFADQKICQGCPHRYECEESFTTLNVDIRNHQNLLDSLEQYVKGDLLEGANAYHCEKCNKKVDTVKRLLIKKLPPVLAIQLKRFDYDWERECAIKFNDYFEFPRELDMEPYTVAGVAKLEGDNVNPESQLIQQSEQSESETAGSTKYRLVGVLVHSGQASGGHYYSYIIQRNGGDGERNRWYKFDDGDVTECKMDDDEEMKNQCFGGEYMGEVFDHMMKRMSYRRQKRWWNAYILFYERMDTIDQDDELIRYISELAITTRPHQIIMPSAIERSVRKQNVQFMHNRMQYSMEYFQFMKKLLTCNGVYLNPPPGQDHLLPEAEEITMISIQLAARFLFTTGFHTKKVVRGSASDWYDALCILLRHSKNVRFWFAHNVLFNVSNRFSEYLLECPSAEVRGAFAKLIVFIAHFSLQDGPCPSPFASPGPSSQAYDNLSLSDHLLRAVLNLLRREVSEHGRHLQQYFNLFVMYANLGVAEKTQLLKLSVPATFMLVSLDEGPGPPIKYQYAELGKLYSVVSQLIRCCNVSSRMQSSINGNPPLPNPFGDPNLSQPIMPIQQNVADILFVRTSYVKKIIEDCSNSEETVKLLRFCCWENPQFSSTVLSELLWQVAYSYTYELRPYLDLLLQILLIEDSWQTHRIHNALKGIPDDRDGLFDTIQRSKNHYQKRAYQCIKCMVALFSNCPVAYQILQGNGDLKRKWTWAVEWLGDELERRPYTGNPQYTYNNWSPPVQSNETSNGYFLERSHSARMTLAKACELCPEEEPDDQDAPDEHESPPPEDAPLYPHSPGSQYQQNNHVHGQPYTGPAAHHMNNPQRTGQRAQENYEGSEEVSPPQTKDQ

T1: HA–NUAK1 (wild type), stably overexpressed in U2OS Flp/In cells (human) (UniProt O60285)
T1 sequence: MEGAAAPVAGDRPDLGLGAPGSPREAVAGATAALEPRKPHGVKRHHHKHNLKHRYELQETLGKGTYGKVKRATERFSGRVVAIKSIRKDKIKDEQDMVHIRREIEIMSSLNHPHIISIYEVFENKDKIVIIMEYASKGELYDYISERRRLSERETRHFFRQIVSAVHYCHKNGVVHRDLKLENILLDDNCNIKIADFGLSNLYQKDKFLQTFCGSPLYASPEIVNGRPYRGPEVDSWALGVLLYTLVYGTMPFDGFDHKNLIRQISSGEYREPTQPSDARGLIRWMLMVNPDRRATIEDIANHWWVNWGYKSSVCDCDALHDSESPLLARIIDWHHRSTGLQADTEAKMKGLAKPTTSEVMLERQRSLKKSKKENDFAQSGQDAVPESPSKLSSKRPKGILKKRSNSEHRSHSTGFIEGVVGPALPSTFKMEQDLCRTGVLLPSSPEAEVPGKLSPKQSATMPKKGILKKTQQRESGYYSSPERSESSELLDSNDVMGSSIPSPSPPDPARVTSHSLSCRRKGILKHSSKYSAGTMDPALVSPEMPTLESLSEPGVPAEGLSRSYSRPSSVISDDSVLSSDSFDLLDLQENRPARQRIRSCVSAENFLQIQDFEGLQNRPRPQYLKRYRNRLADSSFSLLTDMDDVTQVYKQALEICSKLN

B1: MYPT2 (protein, UniProt O60237 1-982)
chain: MAELEHLGGKRAESARMRRAEQLRRWRGSLTEQEPAERRGAGRQPLTRRGSPRVRFEDGAVFLAACSSGDTDEVRKLLARGADINTVNVDGLTALHQACIDENLDMVKFLVENRANVNQQDNEGWTPLHAAASCGYLNIAEYFINHGASVGIVNSEGEVPSDLAEEPAMKDLLLEQVKKQGVDLEQSRKEEEQQMLQDARQWLNSGKIEDVRQARSGATALHVAAAKGYSEVLRLLIQAGYELNVQDYDGWTPLHAAAHWGVKEACSILAEALCDMDIRNKLGQTPFDVADEGLVEHLELLQKKQNVLRSEKETRNKLIESDLNSKIQSGFFKNKEKMLYEEETPKSQEMEEENKESSSSSSEEEEGEDEASESETEKEADKKPEAFVNHSNSESKSSITEQIPAPAQNTFSASSARRFSSGLFNKPEEPKDESPSSWRLGLRKTGSHNMLSEVANSREPIRDRGSSIYRSSSSPRISALLDNKDKERENKSYISSLAPRKLNSTSDIEEKENRESAVNLVRSGSYTRQLWRDEAKGNEIPQTIAPSTYVSTYLKRTPHKSQADTTAEKTADNVSSSTPLCVITNRPLPSTANGVTATPVLSITGTDSSVEAREKRRSYLTPVRDEEAESLRKARSRQARQTRRSTQGVTLTDLQEAERTFSRSRAERQAQEQPREKPTDTEGLEGSPEKHEPSAVPATEAGEGQQPWGRSLDEEPICHRLRCPAQPDKPTTPASPSTSRPSLYTSSHLLWTNRFSVPDSESSETTTNTTTAKEMDKNENEEADLDEQSSKRLSIRERRRPKERRRGTGINFWTKDEDETDGSEEVKETWHERLSRLESGGSNPTTSDSYGDRASARARREAREARLATLTSRVEEDSNRDYKKLYESALTENQKLKTKLQEAQLELADIKSKLEKVAQQKQEKTSDRSSVLEMEKRERRALERKMSEMEEEMKVLTELKSDNQRLKDENGALIRVISKLSK

target: T1, HA–NUAK1 (wild type), stably overexpressed in U2OS Flp/In cells (human); experiment: affinity purification with mass spectrometry; HA–NUAK1 immunoprecipitated from 35 mg of U2OS Flp/In lysate; gel stained with Coomassie Blue, cut into pieces, proteins identified by mass fingerprinting; cells with empty vector as control

binding, binds:
SKP1 (S-phase kinase-associated protein 1) (from UniProt P63208 1-163), MBS85 (from UniProt Q9BZL4 1-782), ubiquitin (human (endogenous in U2OS)), βTrCP1 (human (endogenous in U2OS)), βTrCP2 (from UniProt Q9UKB1 1-542), USP9X (from UniProt Q93008 1-2554), B1

These are yes or no findings as the source states them, for the method shown. Binding seen in cells or lysates may run through a third protein. These calls come from enrichment with a bait or labelling near it, and not all partners need be listed. Where a sequence is shown, tags or fusion partners need not be part of it.
